From PubChem BioAssay record AID504749 (NCATS, 2011).

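A panel of P. falciparum strains inside erythrocytes is exposed to compounds for three days, then a DNA-binding dye reports the amount of parasite DNA.
Each compound was titrated across a series from about 0.000037 to 29 µM.
The number is the fitted AC50, the concentration giving a half-maximal change in signal; a lower value means higher potency, whether the curve shows a decrease or an increase.
Calls follow the curve class and fit quality: every row here is inconclusive, covering signal-raising curves and weak, poorly fitted, partial or highest-dose-only inhibition curves.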

Values are in nM.
Every entry below has the call inconclusive.
Only part of the assay is shown, chiefly results filed as inconclusive.
A potency from a partial, single-point or poor curve is only a rough figure.
The first word of each remark tells which way the curve ran; it can be opposite to the aim of the assay.

| compound | setting | potency (nM) | curve as filed |
|---|---|---|---|
| `CCCSS/C(CCO)=C(/C)N(C=O)Cc1cnc(C)nc1N` | TAB165 | 17782 | inhibitor, single point |
| `CCCSS/C(CCO)=C(/C)N(C=O)Cc1cnc(C)nc1N` | GB4 | 13459 | inhibitor, partial curve, poor fit |
| `CC[C@@]1(c2ccccc2)NC(=O)N(C)C1=O` | 7G8 | 11220 | inhibitor, single point |
| `CC[C@@]1(c2ccccc2)NC(=O)N(C)C1=O` | CP262 | 0.5 | inhibitor |
| `O=C(O)C[CH2][Ge](=[O])[O][Ge](=[O])[CH2]CC(=O)O` | parasite line B | 17782 | inhibitor, single point |
| `CCC(C)C(=O)OC1CC(O)C=C2C=CC(C)C(CCC(O)CC(O)CC(=O)O)C21` (stereo unspecified) | 7G8 | 14125 | inhibitor, single point |
| `CCC(C)C(=O)OC1CC(O)C=C2C=CC(C)C(CCC(O)CC(O)CC(=O)O)C21` (stereo unspecified) | ATS189 | 3548 | inhibitor, single point |
| `CC(C)=CCC/C(C)=C/C=C/C(C)=C/C=C/C(C)=C/C=C/C=C(C)/C=C/C=C(C)/C=C/C=C(\C)CCC=C(C)C` | CP237 | 14125 | inhibitor, single point |
| `CC(C)=CCC/C(C)=C/C=C/C(C)=C/C=C/C(C)=C/C=C/C=C(C)/C=C/C=C(C)/C=C/C=C(\C)CCC=C(C)C` | DIV14 | 19011 | inhibitor, partial curve, poor fit |
| `CC(C)=CCC/C(C)=C/C=C/C(C)=C/C=C/C(C)=C/C=C/C=C(C)/C=C/C=C(C)/C=C/C=C(\C)CCC=C(C)C` | CP191 | 8912 | inhibitor, single point |
| `CC(C)=CCC/C(C)=C/C=C/C(C)=C/C=C/C(C)=C/C=C/C=C(C)/C=C/C=C(C)/C=C/C=C(\C)CCC=C(C)C` | P94_40 | 10000 | inhibitor, single point |
| `CC(C)=CCC/C(C)=C/C=C/C(C)=C/C=C/C(C)=C/C=C/C=C(C)/C=C/C=C(C)/C=C/C=C(\C)CCC=C(C)C` | PAD | 11220 | inhibitor, single point |
| `CC(C)=CCC/C(C)=C/C=C/C(C)=C/C=C/C(C)=C/C=C/C=C(C)/C=C/C=C(C)/C=C/C=C(\C)CCC=C(C)C` | CP266 | 95.3 | inhibitor, full curve, poor fit |
| `CC(C)=CCC/C(C)=C/C=C/C(C)=C/C=C/C(C)=C/C=C/C=C(C)/C=C/C=C(C)/C=C/C=C(\C)CCC=C(C)C` | ECU | 10000 | inhibitor, single point |
| `CC(C)=CCC/C(C)=C/C=C/C(C)=C/C=C/C(C)=C/C=C/C=C(C)/C=C/C=C(C)/C=C/C=C(\C)CCC=C(C)C` | HB3 | 17782 | inhibitor, single point |
| `O=C(O)c1c(Cl)c(Cl)c(Cl)c(Cl)c1-c1c2cc(I)c(=O)c(I)c-2oc2c(I)c(O)c(I)cc12` | CP297 | 477.5 | inhibitor, full curve, poor fit |
| `O=c1[nH]c(=O)n(C2CCCO2)cc1F` (stereo unspecified) | CP215 | 19011 | inhibitor, single point |
| `Nc1nc2ccc(OC(F)(F)F)cc2s1` | SC27B | 10000 | inhibitor, single point |
| `Nc1nc2ccc(OC(F)(F)F)cc2s1` | ATS189 | 19952 | inhibitor, single point |
| `Nc1nc2ccc(OC(F)(F)F)cc2s1` | P94_40 | 3981 | inhibitor, partial curve, poor fit |
| `Nc1nc2ccc(OC(F)(F)F)cc2s1` | CP191 | 12589 | inhibitor, partial curve |
| `Nc1nc2ccc(OC(F)(F)F)cc2s1` | DIV14 | 19011 | inhibitor, single point |
| `C/C=C/C=C/C(=O)O` | P93_24 | 3981 | inhibitor, single point |
| `C/C=C/C=C/C(=O)O` | ATS95 | 11220 | inhibitor, single point |
| `CO[C@H]1/C=C/O[C@@]2(C)Oc3c(C)c(O)c4c(O)c(c(/C=N\N5CCN(C6CCCC6)CC5)c(O)c4c3C2=O)NC(=O)/C(C)=C\C=C\[C@H](C)[C@H](O)[C@@H](C)[C@@H](O)[C@@H](C)[C@H](OC(C)=O)[C@@H]1C` | W2 | 1346 | activator |
| `CO[C@H]1/C=C/O[C@@]2(C)Oc3c(C)c(O)c4c(O)c(c(/C=N\N5CCN(C6CCCC6)CC5)c(O)c4c3C2=O)NC(=O)/C(C)=C\C=C\[C@H](C)[C@H](O)[C@@H](C)[C@@H](O)[C@@H](C)[C@H](OC(C)=O)[C@@H]1C` | PC26 | 952.8 | inhibitor, full curve, poor fit |
| `O=c1oc2cc(O)ccc2s1` | DIV17 | 19011 | inhibitor, single point |
| `O=c1oc2cc(O)ccc2s1` | GB4 | 15101 | inhibitor, single point |
| `O=c1oc2cc(O)ccc2s1` | ICS | 12589 | inhibitor, partial curve, poor fit |
| `O=c1oc2cc(O)ccc2s1` | DIV14 | 11995 | inhibitor, single point |
| `O=c1oc2cc(O)ccc2s1` | W2 | 13459 | inhibitor, partial curve, poor fit |
| `O=c1oc2cc(O)ccc2s1` | 7G8 | 10000 | inhibitor, single point |
| `O=c1oc2cc(O)ccc2s1` | CP250 | 12589 | inhibitor, single point |
| `CCCCCCCCCCCCCCCCCC[N+](C)(C)CCC[Si](OC)(OC)OC` | parasite line B | 12589 | inhibitor, single point |
| `CCCCCCCCCCCCCCCCCC[N+](C)(C)CCC[Si](OC)(OC)OC` | W2 | 2133 | inhibitor, single point |
| `COc1ccc(Cc2nccc3cc(OC)c(OC)cc23)cc1OC` | PC26 | 7208 | inhibitor, single point |
| `COc1ccc(Cc2nccc3cc(OC)c(OC)cc23)cc1OC` | P93_24 | 1585 | inhibitor, single point |
| `COc1ccc(Cc2nccc3cc(OC)c(OC)cc23)cc1OC` | CP247 | 4.5 | inhibitor, full curve, poor fit |
| `COc1ccc(Cc2nccc3cc(OC)c(OC)cc23)cc1OC` | CP215 | 9074 | inhibitor, single point |

Once more, the final 2:

compound	setting	potency (nM)	curve as filed
COc1ccc(Cc2nccc3cc(OC)c(OC)cc23)cc1OC	CP247	4.5	inhibitor, full curve, poor fit
COc1ccc(Cc2nccc3cc(OC)c(OC)cc23)cc1OC	CP215	9074	inhibitor, single point